Out of some 220,000 compounds screened, about 770 (0.35%) were called active. Inconclusive means that the source gave no clear call. Such entries were picked first, then a sample of the others. No stated cut-off is given here; in the data, active means binding response below about 49% or above about 150%; inconclusive means no clear call, values can overlap the other calls; inactive means in between.
The compounds below were run against Guanine nucleotide-binding protein G(o) subunit alpha (Homo sapiens) (UniProt P09471) (assay: RGS7-Galphao binding modulators, primary screen, biochemical, multiplexed bead flow cytometry (AID 1439;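 further: fluorescent Galphao held in activated GDP-AlF4 state binding bead-coupled RGS7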)). Conditions: at 10 µM, actives lie on both sides.

Chains of the proteins cited; added tags and fusions are not shown.
UniProt P09471, whole entry, looked up: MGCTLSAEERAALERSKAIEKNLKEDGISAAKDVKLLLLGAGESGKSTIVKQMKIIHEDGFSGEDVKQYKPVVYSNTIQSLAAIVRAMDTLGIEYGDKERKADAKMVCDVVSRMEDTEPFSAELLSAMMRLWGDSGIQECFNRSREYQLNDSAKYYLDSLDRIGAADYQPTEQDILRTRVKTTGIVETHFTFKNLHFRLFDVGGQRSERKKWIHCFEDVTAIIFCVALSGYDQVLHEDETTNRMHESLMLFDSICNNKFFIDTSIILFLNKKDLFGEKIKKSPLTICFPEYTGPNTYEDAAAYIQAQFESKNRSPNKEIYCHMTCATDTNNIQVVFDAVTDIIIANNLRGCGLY

Row | SMILES | binding response (% of control)
1 | CCC(C)NCCOc1cc(C)cc(C)c1C (stereo not given) | inconclusive: 110%
2 | C/C(CC(=O)NC12CC3CC(CC(C3)C1)C2)=N\NC(=O)c1ccc(C)cc1 | inactive: 102%
3 | O=C(O)c1ccc(/C=N/NC(=O)C2CC2(c2ccccc2)c2ccccc2)cc1 (stereo not given) | inconclusive: 103%
4 | COc1ccc(NC(=S)N/N=C/c2cccn2Cc2ccc(F)cc2Cl)cc1 | inconclusive: 113%
5 | CCOC(=O)c1nn(-c2ccc([N+](=O)[O-])cc2)cc1O | inconclusive: 44.5%
6 | COc1ccc(NC(C)=O)cc1NC(=O)CN1CCN(C(=O)c2ccco2)CC1 | inactive: 123%
7 | COc1ccc(C(=O)NCC(=O)OCC(=O)N(C)c2ccccc2)cc1 | inconclusive: 83.3%
8 | CN(C)S(=O)(=O)c1ccc(C(=O)NCCSc2ccc(Br)cc2)cc1 | inactive: 101%
9 | CCOC(=O)N1CCN(C(=O)CCC2CCCC2)CC1 | inconclusive: 92.9%
10 | Cc1ccc(S(=O)(=O)CCN2CCC(n3cccc3)CC2)cc1 | inconclusive: 80.6%
11 | COc1cc(CNCCc2ccccc2)cc(Cl)c1OCc1ccccc1 | inactive: 104%
12 | C[C@]12CS(=O)(=O)C[C@H]1SC(=S)N2c1ccccc1 | inconclusive: 147%
13 | CN(C)CCNc1ncnc2c1sc1nc(-c3ccccc3)c3c(c12)CCCC3 | inconclusive: 117%
14 | Nc1nc(SCC(=O)N2N=C(c3ccc(Cl)cc3)CC2c2ccco2)n[nH]1 (stereo not given) | inconclusive: 99.4%
15 | CC(Sc1nnc(NCc2ccccc2)s1)C(=O)Nc1ccc2c(c1)C(=O)c1ccccc1C2=O (stereo not given) | inactive: 104%
16 | COCCN(C(=S)Nc1ccccc1C)C(C)c1ccco1 (stereo not given) | inconclusive: 114%
17 | CC(=O)N1CCC(C(=O)Nc2cc(C)cc(C)c2)CC1 | inconclusive: 109%
18 | C=CCN1C(=O)CSc2ccc(C(=O)NCc3cccs3)cc21 | inactive: 101%
19 | Cc1nnsc1Sc1ccccc1 | inactive: 103%
20 | O=C(COc1ccc([N+](=O)[O-])cc1)N1CCN(c2nnc(-c3ccccc3)c3ccccc23)CC1 | inconclusive: 112%
21 | COc1ccc(C(=O)Nc2ccc3c(c2)OCCO3)cc1[N+](=O)[O-] | inconclusive: 120%
22 | CCn1ccnc1CN(C)Cc1nc(-c2ccc(C(=O)OC)cc2)no1 | inconclusive: 86.5%
23 | O=C(CN1CCOCC1)Nc1ccccc1-c1ccccc1 | inactive: 87.4%

Row | SMILES | binding response (% of control)
24 | CN(C)c1ccc(C2Nc3ccccc3C(=O)N2NS(=O)(=O)c2ccccc2)cc1 (stereo not given) | inconclusive: 117%
25 | CN(C)c1ccc(/C=N/NC(=O)c2ccn(C)n2)cc1 | inconclusive: 688%
26 | COc1ccc(CNc2ccc([N+](=O)[O-])cc2C)cc1 | inconclusive: 115%
27 | CC(C)N(CC#CC(O)(c1ccccc1)c1ccccc1)C(C)C | inconclusive: 120%
28 | CC(=C/c1ccccc1)/C=N/NC(=O)c1cccs1 | inconclusive: 106%
29 | CCCC[C@@H]1CN=C(N)N1CCc1cc(C(F)(F)F)cc(C(F)(F)F)c1 | inconclusive: 106%
30 | O=C(CN1c2ccccc2Sc2ccccc21)N/N=C/c1ccc([N+](=O)[O-])cc1 | inconclusive: 104%
31 | CCc1ccccc1N1CN(Cc2cccnc2)CNC1=S | inconclusive: 97.3%
32 | COC(=O)c1nc2n(n1)C(c1ccc(OC)c(OC)c1)C(C(=O)OC1CCCCC1)=C(C)N2 (stereo not given) | inactive: 88.3%
33 | O=[N+]([O-])c1ccc(O)c(C=Nc2ccc3c(c2)OCO3)c1 | inconclusive: 151%
34 | CC(C)C[C@H](CO)Nc1nc(N(C)c2cccc(Cl)c2)c2ncn(C(C)C)c2n1 | inconclusive: 106%
35 | CCN1CCC(CNCc2cn(-c3ccc(OC)cc3)nc2-c2ccccc2Cl)C1 (stereo not given) | inactive: 95.8%
36 | CCCS(=O)(=O)N1CCN(C2Cc3ccccc3C2)CC1 | inconclusive: 79.9%
37 | CCOC(=O)c1cnc2c(c(C)nn2C)c1Oc1ccc(OC)cc1 | inconclusive: 204%
38 | O=c1cc2oc3cc(O)c(O)cc3c(-c3ccccc3O)c-2cc1O | inconclusive: 136%
39 | O=C(CNCc1ccccn1)Nc1cc(C(F)(F)F)ccc1N1CCOCC1 | inconclusive: 298%
40 | CC1(C)CC(=O)C(C=NCC2CCN(C(=S)Nc3ccccc3)CC2)=C(O)C1 | inconclusive: 93.3%
41 | CCOC(=O)c1c(-c2ccccc2Cl)csc1NC(=O)c1cc(S(=O)(=O)N2CCOCC2)ccc1C | inactive: 103%
42 | O=C(NCc1ccco1)C1CCCN1C(=O)Nc1ccc(Cl)cc1 (stereo not given) | inactive: 104%
43 | COc1ccc(Cl)cc1C(=O)Nc1ccc(CN2CCCCC2)cc1 | inconclusive: 95%
44 | COc1ccc(C(=O)NNC2=CC(=O)CC(C)(C)C2)cc1OC | inactive: 105%
45 | NC(=O)COC(=O)c1cc([N+](=O)[O-])ccc1NCCO | inconclusive: 80%

3 records picked at random from those above:
Row | SMILES | binding response (% of control)
25 | CN(C)c1ccc(/C=N/NC(=O)c2ccn(C)n2)cc1 | inconclusive: 688%
35 | CCN1CCC(CNCc2cn(-c3ccc(OC)cc3)nc2-c2ccccc2Cl)C1 (stereo not given) | inactive: 95.8%
38 | O=c1cc2oc3cc(O)c(O)cc3c(-c3ccccc3O)c-2cc1O | inconclusive: 136%
